{"source": "PubChem BioAssay AID652259 | Drosophila RNAi Screening Center – 2013", "screen": "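Knock-downs that push a Wingless-driven reporter up or down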 (primary screen)", "cell system": "Drosophila clone 8 imaginal disc epithelial cells", "reagent": "long dsRNA against Drosophila genes", "treatment": "pathway stimulated by co-transfected Wingless expression plasmid", "detection": "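Firefly luciferase from a tcf-site Wingless reporter, measured alongside co-transfected Renilla luciferase that tracks transfection; pathway stimulated by a Wingless plasmid; the firefly-to-Renilla ratio is not deposited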", "direction": "firefly reporter light: higher = more Wg reporter light, before normalisation; Renilla control light: higher = more transfected or surviving cells", "rule for the call": "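a knock-down is a candidate when at least two out of four statistical tests show it departing from its plate mean; one test alone signals a weak candidate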", "meaning of the calls": "active = candidate regulator (raises or lowers reporter); inactive = not a candidate", "note": "The deposit covers about 22,000 reagents; shown is an unselected part of those with a known target gene and a result. In the full data, 233 (1.1%) were called active. 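Light values are raw, unnormalised plate reads; the ratio scores behind the reporter calls were not deposited.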 The numbers tell different reagents against one gene apart. Reagent sequences are not shown. The record does not give: the amount of reagent, the time to read-out, the dose of the treatment."}
{"Target gene": "CG46491", "dsRNA no.": 1, "firefly reporter light, replicate 1": 11910, "Renilla control light, replicate 1": 4448, "outcome": "inactive"}
{"Target gene": "CG46491", "dsRNA no.": 2, "firefly reporter light, replicate 1": 4744, "Renilla control light, replicate 1": 2140, "outcome": "inactive"}
{"Target gene": "Reps (RALBP1 associated Eps domain containing)", "dsRNA no.": 1, "firefly reporter light, replicate 1": 2194, "firefly reporter light, replicate 2": 4867, "Renilla control light, replicate 1": 807, "Renilla control light, replicate 2": 2729, "outcome": "inactive"}
{"Target gene": "CG10062", "dsRNA no.": 1, "firefly reporter light, replicate 1": 17133, "Renilla control light, replicate 1": 5129, "outcome": "inactive"}
{"Target gene": "CG10062", "dsRNA no.": 2, "firefly reporter light, replicate 1": 8.36e5, "firefly reporter light, replicate 2": 8.18e5, "Renilla control light, replicate 1": 3.86e5, "Renilla control light, replicate 2": 3.70e5, "outcome": "inactive"}
{"Target gene": "CG15873", "dsRNA no.": 1, "firefly reporter light, replicate 1": 2416, "firefly reporter light, replicate 2": 7460, "Renilla control light, replicate 1": 695, "Renilla control light, replicate 2": 2913, "outcome": "inactive"}
{"Target gene": "Pi3K59F (Phosphatidylinositol 3-kinase 59F)", "dsRNA no.": 1, "firefly reporter light, replicate 1": 6308, "Renilla control light, replicate 1": 1561, "outcome": "inactive"}
{"Target gene": "mino (minotaur)", "dsRNA no.": 1, "firefly reporter light, replicate 1": 1817, "firefly reporter light, replicate 2": 7707, "Renilla control light, replicate 1": 994, "Renilla control light, replicate 2": 1957, "outcome": "inactive"}
{"Target gene": "mIF3 (mitochondrial translation initiation factor 3)", "dsRNA no.": 1, "firefly reporter light, replicate 1": 4784, "Renilla control light, replicate 1": 2395, "outcome": "inactive"}
{"Target gene": "lncRNA:CR9284 (long non-coding RNA:CR9284)", "dsRNA no.": 1, "firefly reporter light, replicate 1": 22532, "Renilla control light, replicate 1": 12085, "outcome": "inactive"}
{"Target gene": "lncRNA:CR9284 (long non-coding RNA:CR9284)", "dsRNA no.": 2, "firefly reporter light, replicate 1": 11664, "Renilla control light, replicate 1": 3165, "outcome": "inactive"}
{"Target gene": "CG14357", "dsRNA no.": 1, "firefly reporter light, replicate 1": 13765, "Renilla control light, replicate 1": 2928, "outcome": "inactive"}
{"Target gene": "CG4259", "dsRNA no.": 1, "firefly reporter light, replicate 1": 2338, "firefly reporter light, replicate 2": 3994, "Renilla control light, replicate 1": 1213, "Renilla control light, replicate 2": 1984, "outcome": "inactive"}
{"Target gene": "CG17219", "dsRNA no.": 1, "firefly reporter light, replicate 1": 3429, "firefly reporter light, replicate 2": 6365, "Renilla control light, replicate 1": 1410, "Renilla control light, replicate 2": 2685, "outcome": "inactive"}
{"Target gene": "CG31091", "dsRNA no.": 1, "firefly reporter light, replicate 1": 11572, "Renilla control light, replicate 1": 12322, "outcome": "inactive"}
{"Target gene": "ND-ACP", "dsRNA no.": 1, "firefly reporter light, replicate 1": 4822, "Renilla control light, replicate 1": 2501, "outcome": "inactive"}
{"Target gene": "Obp19d (Odorant-binding protein 19d)", "dsRNA no.": 1, "firefly reporter light, replicate 1": 25076, "Renilla control light, replicate 1": 1356, "outcome": "inactive"}

Just “Renilla control light, replicate 1” (5 entries from above):
lncRNA:CR9284 (long non-coding RNA:CR9284) #1: 12085
lncRNA:CR9284 (long non-coding RNA:CR9284) #2: 3165
CG14357: 2928
CG4259: 1213
CG17219: 1410

The results go on:
{"Target gene": "S-Lap3 (Sperm-Leucylaminopeptidase 3)", "dsRNA no.": 1, "firefly reporter light, replicate 1": 1971, "Renilla control light, replicate 1": 1059, "outcome": "inactive"}
{"Target gene": "Nulp1 (Nuclear localized protein 1)", "dsRNA no.": 1, "firefly reporter light, replicate 1": 4040, "Renilla control light, replicate 1": 1367, "outcome": "inactive"}
{"Target gene": "PpD5 (Protein phosphatase D5)", "dsRNA no.": 1, "firefly reporter light, replicate 1": 3037, "firefly reporter light, replicate 2": 6823, "Renilla control light, replicate 1": 956, "Renilla control light, replicate 2": 3440, "outcome": "inactive"}
{"Target gene": "CR43142 (pseudo)", "dsRNA no.": 1, "firefly reporter light, replicate 1": 19776, "Renilla control light, replicate 1": 8992, "outcome": "inactive"}
{"Target gene": "Dfd (Deformed)", "dsRNA no.": 1, "firefly reporter light, replicate 1": 16811, "Renilla control light, replicate 1": 5168, "outcome": "inactive"}
{"Target gene": "CG43134", "dsRNA no.": 1, "firefly reporter light, replicate 1": 5990, "Renilla control light, replicate 1": 1779, "outcome": "inactive"}
{"Target gene": "CG15641", "dsRNA no.": 1, "firefly reporter light, replicate 1": 16992, "Renilla control light, replicate 1": 7201, "outcome": "inactive"}
{"Target gene": "phtm (phantom)", "dsRNA no.": 1, "firefly reporter light, replicate 1": 20019, "Renilla control light, replicate 1": 11563, "outcome": "inactive"}
{"Target gene": "CG7924", "dsRNA no.": 1, "firefly reporter light, replicate 1": 3654, "Renilla control light, replicate 1": 1536, "outcome": "inactive"}
{"Target gene": "Xbp1 (X box binding protein-1)", "dsRNA no.": 1, "firefly reporter light, replicate 1": 4584, "Renilla control light, replicate 1": 1793, "outcome": "inactive"}
{"Target gene": "Xbp1 (X box binding protein-1)", "dsRNA no.": 2, "firefly reporter light, replicate 1": 4.44e5, "firefly reporter light, replicate 2": 4.70e5, "Renilla control light, replicate 1": 2.57e5, "Renilla control light, replicate 2": 1.66e5, "outcome": "inactive"}
{"Target gene": "CG3349", "dsRNA no.": 1, "firefly reporter light, replicate 1": 6644, "Renilla control light, replicate 1": 2576, "outcome": "inactive"}
{"Target gene": "lncRNA:sphinx (long non-coding RNA:sphinx)", "dsRNA no.": 1, "firefly reporter light, replicate 1": 19188, "Renilla control light, replicate 1": 12103, "outcome": "inactive"}
{"Target gene": "betaNACtes1 (Nascent-associated complex beta-subunit-like, testis 1)", "dsRNA no.": 1, "firefly reporter light, replicate 1": 26690, "Renilla control light, replicate 1": 10965, "outcome": "inactive"}
{"Target gene": "CG13160", "dsRNA no.": 1, "firefly reporter light, replicate 1": 5133, "Renilla control light, replicate 1": 2530, "outcome": "inactive"}
